Data as given in PubChem BioAssay AID652054 (National Center for Advancing Translational Sciences (NCATS), 2013).
Hit rate of the full screen: of about 360,000 compounds, about 9,100 (2.5%) were called active. Inconclusive means that the source gave no clear call. Such entries were picked first, then a sample of the others. Cut-off read from the data, not from the text of the source: active = max response below about -50%; inconclusive = no clear call, values can overlap the other calls; inactive = above that.

Protein sequences, listed by entry. Tags and fused reporters are not part of them.
UniProt P35462, whole entry, looked up: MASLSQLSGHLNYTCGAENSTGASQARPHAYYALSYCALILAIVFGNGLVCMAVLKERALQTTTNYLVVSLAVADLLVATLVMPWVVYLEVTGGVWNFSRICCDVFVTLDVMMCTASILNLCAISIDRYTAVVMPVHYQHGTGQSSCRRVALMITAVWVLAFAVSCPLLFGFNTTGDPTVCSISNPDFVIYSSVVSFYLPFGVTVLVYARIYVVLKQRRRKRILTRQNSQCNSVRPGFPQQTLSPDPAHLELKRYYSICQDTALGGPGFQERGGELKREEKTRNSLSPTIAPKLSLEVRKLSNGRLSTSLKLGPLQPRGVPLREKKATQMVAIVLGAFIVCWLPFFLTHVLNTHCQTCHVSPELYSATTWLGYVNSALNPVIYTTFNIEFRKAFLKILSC

target: D(3) dopamine receptor (Homo sapiens) (UniProt P35462); test: qHTS of D3 Dopamine Receptor Antagonist: qHTS; settings: D3R cells, DiscoveRx beta-arrestin luminescence, antagonist mode; stronger effect = lower value
How it was run: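 Cells plated overnight at 1500 cells/well, then exposed to library compounds with dopamine controls for 90 minutes at 37 degrees C. DiscoveRx reagent added for 30–60 minutes at room temperature; luminescence read, quantitative HTS format.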
% is set by controls: 0 for no effect and ±100 for the full control effect.

SMILES | max response, negative = inhibition
O=C(/C=C/c1ccc(Cl)cc1Cl)NCCN1CCOCC1 | inconclusive: -42.7%
c1cc2[nH]snc2c2nc(C3CC3)nc12 | inactive: 24.3%
O=C(NC1CCN(Cc2ccccc2)CC1)c1cccc(S(=O)(=O)Nc2ccc(F)cc2)c1 | inconclusive: -41.3%
COc1ccc(-c2nnc(SC)nc2-c2ccc(OC)c([N+](=O)[O-])c2)cc1[N+](=O)[O-] | inconclusive: -45.5%
C=CCC1(N(C(C)=O)c2ccccc2)CCCCC1 | inconclusive: -34.5%
CC(C)Oc1ccc(S(=O)(=O)N2CCOCC2)cc1NC(=O)CC1CCCC1 | inconclusive: -36.2%
COc1ccc(C[C@H]2CN3C(=NC[C@@H]3C(C)C)N2C[C@H](C)NC(=O)c2ccc(C)c(Br)c2)cc1 | active: -75.6%
COc1ccc(-n2c(COc3ccc(C)cc3)nnc2SCC(N)=O)cc1 | inconclusive: -42%
O=C(O)C1CCN(S(=O)(=O)c2ccc(N3CCCC3C(=O)O)c([N+](=O)[O-])c2)CC1 (stereo not drawn) | active: -81.6%
CCN1CCCC1CNC(=O)c1[nH]c2ccc(OC)cc2c1C (stereo not drawn) | active: -60.9%
Cc1cc(NC(=O)Cn2nc(-c3cccs3)ccc2=O)cc(C)c1Br | inconclusive: -36.3%
O=c1c2ccccc2sn1-c1ccccc1F | inconclusive: -30%
CCNC(=O)C1(C)CCCN(Cc2ccc(-c3ccccc3)o2)C1 (stereo not drawn) | inconclusive: -43.4%
Cc1noc(C)c1C(=O)Nc1ccc2c(c1)CCC2 | inconclusive: -45.2%
OC(C#CCN1CCCCCC1)(c1ccccc1)c1cccnc1 (stereo not drawn) | active: -64%
O=C(NN1CCN(Cc2ccccc2)CC1)c1ccc(Cl)cc1 | inconclusive: -40.6%
CCc1ccccc1NC(=S)N(CCCN1CCOCC1)Cc1cccs1 | inconclusive: -30.6%
O=C(Cn1ncc2ccccc2c1=O)Nc1cccc(C(F)(F)F)c1 | inconclusive: -47.2%
O=C(Cc1ccc(S(=O)(=O)N2CCCCC2)s1)Nc1ccc(F)c(F)c1 | inconclusive: -30.7%
Cc1cc(C)c(C(=O)CC(=O)c2cccnc2)c(C)c1 | inconclusive: -35.3%

SMILES | max response, negative = inhibition
CN(CC(=O)Nc1cccc(F)c1)CC(=O)Nc1ccc(Cl)cc1[N+](=O)[O-] | inactive: -5.09%
C[C@@H]1CC=C[C@H]2[C@H]1C(=O)N(Cc1ccccc1)[C@H]2c1ccc2ccccc2c1 | inconclusive: -38.1%
O=C(c1nc2ncccn2n1)N1CCN(c2ccc(F)cc2)CC1 | inconclusive: -33.9%
COCCSc1nnc(-c2cnccn2)o1 | inactive: 10.3%
O=S(=O)(c1ccccc1)N(CC(F)(F)F)c1ccc(C(O)(C(F)(F)F)C(F)(F)F)cc1 | inactive: -8.56%
COc1ccc(OC)c(NC(=O)NC2CCCc3ccccc32)c1 (stereo not drawn) | inconclusive: -38.2%
Cc1occc(=O)c1O | active: -53.4%
CCN(CC)CCCOc1ccc(Cl)c(Cl)c1 | inactive: -28.9%
CCOC(=O)c1ccccc1NC(=O)CSc1nnnn1C1CCCCC1 | active: -77.1%
CCCc1nc2c3ccccc3ccn2c1Cc1ccc(C)cc1 | inconclusive: -31.1%
CCCn1c(SCC(=O)N(C)C2CCCCC2)n[nH]c1=O | inactive: -0.29%
O=C(NCCc1ccccc1)C(=O)NCC1OCCCN1S(=O)(=O)c1ccc(F)cc1 (stereo not drawn) | inconclusive: -43.1%
Cc1ccc(S(=O)(=O)N2CCCC(C(=O)NC3=NCCS3)C2)cc1 (stereo not drawn) | inconclusive: -31.6%
CC(=O)Oc1ccc2nc(-c3cccs3)oc(=O)c2c1 | inconclusive: -41.5%
CCOC(=O)C1CCCN(C(=O)c2ccc(C)cc2O)C1 (stereo not drawn) | inconclusive: -33.4%
CCN(CC)CCCNC(=S)N1CCN(c2nc(-c3ccc(F)cc3)cs2)CC1 | active: -52.2%
COc1ccc(Nc2oc(-c3ccccc3Cl)nc2C#N)cc1 | active: -54.1%
Cc1nc2ccccc2c2oc(C(=O)NCCN3CCCCC3C)cc12 (stereo not drawn) | inactive: -17.2%
CC1=Nn2c(nnc2-c2ccccn2)SC1 | inconclusive: -33%
Cc1ccc(C2CC2C(=O)NNC(=S)Nc2ccc(Cl)cc2)cc1 (stereo not drawn) | inconclusive: -35.3%

SMILES | max response, negative = inhibition
CCC(NC(=O)c1cccc(Cn2cc([N+](=O)[O-])cn2)c1)c1ccc(C(C)C)cc1 (stereo not drawn) | active: -52.8%
O=C(NCc1cccnc1)c1nc(-c2ccc(C(F)(F)F)cc2)no1 | active: -59.1%
CCOc1ccc(NC(=O)Nc2cccnc2)cc1 | inactive: 6.74%
O=C(c1ccc(Cl)cc1)c1c[nH]c(C(=O)NNc2ccccc2)c1 | inconclusive: -33.7%
N#CCCN(C1CCCCC1)S(=O)(=O)CCOc1ccccc1 | inconclusive: -40%
Cc1c(C(=O)C(=O)N2c3ccc(F)cc3CCC2C)c2ccccc2n1C (stereo not drawn) | inconclusive: -41.7%
CCOc1ccccc1CNC(=O)c1ccc2nc(N3CCOCC3)sc2c1 | inconclusive: -46.5%
CC(=O)N1CCc2cc([N+](=O)[O-])ccc21 | inactive: -8.8%
NC(=O)c1nsc(C(=O)N(CC(=O)NCc2ccc3c(c2)OCO3)C2CCCCC2)c1N | inconclusive: -38.8%
COc1ccc(CCNc2oc(-c3ccccc3OC)nc2C#N)cc1OC | inactive: -2.05%
Cc1noc(NS(=O)(=O)c2ccc(N/C=C/C(=O)c3ccc4c(c3)OCO4)cc2)c1C | inconclusive: -49.7%
COc1ccc(CNC(=O)C[C@H]2C(=O)N(Cc3ccc(OC)cc3)C[C@@H]2Cc2ccccc2)cc1 | inconclusive: -30.5%
O=C(O)c1ccc(OCCn2ccnc2)cc1 | inconclusive: -32.5%
O=[N+]([O-])c1ccccc1O[C@@H]1O[C@H](CO)[C@H](O)[C@H](O)[C@H]1O | inconclusive: -36.7%
COc1ccc(C2CC(=O)N(C)c3ccccc3S2)cc1OC (stereo not drawn) | inactive: 2.41%
CCOC(=O)N1CCN(C(=O)c2cn(-c3ccc(C)c(C)c3)c(=O)c3ccccc23)CC1 | inconclusive: -36.8%
CCNc1c(C(=O)O)ccc2c1C(=O)c1ccccc1C2=O | inconclusive: -45.7%
COC(=O)C1CCN(C(=O)COC(=O)Cn2cnnn2)CC1 | inconclusive: -45.6%

Some of the entries above in a different format.
SMILES	max response, negative = inhibition
O=C(NCc1cccnc1)c1nc(-c2ccc(C(F)(F)F)cc2)no1	active: -59.1%
CCOc1ccc(NC(=O)Nc2cccnc2)cc1	inactive: 6.74%
O=C(c1ccc(Cl)cc1)c1c[nH]c(C(=O)NNc2ccccc2)c1	inconclusive: -33.7%
Cc1c(C(=O)C(=O)N2c3ccc(F)cc3CCC2C)c2ccccc2n1C (stereo not drawn)	inconclusive: -41.7%
CC(=O)N1CCc2cc([N+](=O)[O-])ccc21	inactive: -8.8%
NC(=O)c1nsc(C(=O)N(CC(=O)NCc2ccc3c(c2)OCO3)C2CCCCC2)c1N	inconclusive: -38.8%
Cc1noc(NS(=O)(=O)c2ccc(N/C=C/C(=O)c3ccc4c(c3)OCO4)cc2)c1C	inconclusive: -49.7%
COc1ccc(CNC(=O)C[C@H]2C(=O)N(Cc3ccc(OC)cc3)C[C@@H]2Cc2ccccc2)cc1	inconclusive: -30.5%
O=C(O)c1ccc(OCCn2ccnc2)cc1	inconclusive: -32.5%
O=[N+]([O-])c1ccccc1O[C@@H]1O[C@H](CO)[C@H](O)[C@H](O)[C@H]1O	inconclusive: -36.7%
